No constants are given. Whether binding was seen depends on the method and setting. In cells and extracts the contact can be indirect. Here binding means that the protein was enriched with, or labelled near, the bait; the list need not be complete. Where a sequence is shown, tags or fusion partners need not be part of it.

This test has as its target T1, HA-tagged altSFPQ (alternative SFPQ isoform lacking the C-terminal nuclear localization signal) (human) (UniProt P23246).
T1 sequence: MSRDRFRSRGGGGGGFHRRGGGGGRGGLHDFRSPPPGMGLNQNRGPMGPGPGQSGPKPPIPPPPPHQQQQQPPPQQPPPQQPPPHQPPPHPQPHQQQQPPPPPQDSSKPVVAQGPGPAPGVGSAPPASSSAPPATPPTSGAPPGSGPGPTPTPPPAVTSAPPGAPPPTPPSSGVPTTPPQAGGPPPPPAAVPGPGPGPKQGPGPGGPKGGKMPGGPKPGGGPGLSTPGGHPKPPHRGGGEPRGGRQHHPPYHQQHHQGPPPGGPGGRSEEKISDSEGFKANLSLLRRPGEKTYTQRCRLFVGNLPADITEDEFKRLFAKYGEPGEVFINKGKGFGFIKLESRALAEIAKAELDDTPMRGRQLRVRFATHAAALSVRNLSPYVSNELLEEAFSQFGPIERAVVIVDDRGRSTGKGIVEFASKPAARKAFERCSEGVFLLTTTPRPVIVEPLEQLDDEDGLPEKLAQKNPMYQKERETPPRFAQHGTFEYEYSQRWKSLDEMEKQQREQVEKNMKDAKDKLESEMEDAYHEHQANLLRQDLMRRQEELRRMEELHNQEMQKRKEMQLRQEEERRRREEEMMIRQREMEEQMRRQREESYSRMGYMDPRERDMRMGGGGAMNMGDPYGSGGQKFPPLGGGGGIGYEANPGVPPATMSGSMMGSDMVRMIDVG
Briefly: affinity purification with mass spectrometry; anti-HA magnetic beads on lysates of N2A cells expressing HA-SFPQ variants, four replicates; on-bead trypsin digestion, TMTpro labelling, LC-MS; enrichment over empty vector.

B1: endogenous SFPQ (protein, UniProt Q8VIJ6 1-699)
chain: MSRDRFRSRGGGGGGFHRRGGGGGRGGLHDFRSPPPGMGLNQNRGPMGPGPGGPKPPLPPPPPHQQQQQPPPQQPPPQQPPPHQQPPPHQPPHQQPPPPPQESKPVVPQGPGSAPGVSSAPPPAVSAPPANPPTTGAPPGPGPTPTPPPAVPSTAPGPPPPSTPSSGVSTTPPQTGGPPPPPAGGAGPGPKPGPGPGGPKGGKMPGGPKPGGGPGMGAPGGHPKPPHRGGGEPRGGRQHHAPYHQQHHQGPPPGGPGPRTEEKISDSEGFKANLSLLRRPGEKTYTQRCRLFVGNLPADITEDEFKRLFAKYGEPGEVFINKGKGFGFIKLESRALAEIAKAELDDTPMRGRQLRVRFATHAAALSVRNLSPYVSNELLEEAFSQFGPIERAVVIVDDRGRSTGKGIVEFASKPAARKAFERCSEGVFLLTTTPRPVIVEPLEQLDDEDGLPEKLAQKNPMYQKERETPPRFAQHGTFEYEYSQRWKSLDEMEKQQREQVEKNMKDAKDKLESEMEDAYHEHQANLLRQDLMRRQEELRRMEELHSQEMQKRKEMQLRQEEERRRREEEMMIRQREMEEQMRRQREESYSRMGYMDPRERDMRMGGGGTMNMGDPYGSGGQKFPPLGGGGGIGYEANPGVPPATMSGSMMGSDMRTERFGQGGAGPVGGQGPRGMGPGTPAGYGRGREEYEGPNKKPRF
B1: the binding result was “binds”.

The values above are taken from paper PMC12372870.
